Measurements reported in PubChem BioAssay AID504786 (Drosophila RNAi Screening Center, 2011).
Assay: 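Fly genes required for HIF-dependent transcription when hypoxia is mimicked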 (primary screen). System: Drosophila S2 cells with a stable HIF luciferase reporter. Knock-down reagent: long dsRNA against Drosophila genes, about 0.2 µg dsRNA per well of a 384-well plate. Duration: three days of knock-down, then 20 h of DFO before reading. Conditions: desferrioxamine (DFO) at 100 µM, an iron chelator that mimics hypoxia, for 20 h. Read-out: 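HIF reporter luminescence in cells given 100 µM DFO for 20 h, using the mouse ldh-a hypoxia-response element, scored as per-plate z-scores; higher means greater loss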. Scale: z-score: higher = stronger loss of HIF reporter signal.
The screen tested about 21,000 reagents; this is a random part of those that have a named target and a result. 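Primary screen; positive scores mean lost reporter signal, so the sign may be inverted from the usual convention.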 Reagents against one gene are numbered here.

For CG6180, how do the results read?
z-score, replicate 1: -0.3; z-score, replicate 2: -0.4

What is on record for CG5180?
z-score, replicate 1: -0.2; z-score, replicate 2: -0.4

What did the screen give for Kcmf1?
z-score, replicate 1: -0.1; z-score, replicate 2: 0.1

How did the screen score CG5346?
z-score, replicate 1: 0.8; z-score, replicate 2: 0.4

How did the screen score Polr2K?
z-score, replicate 1: 0.1; z-score, replicate 2: 0

What did the screen give for Hnf4 #1?
z-score, replicate 1: -0.3; z-score, replicate 2: -0.4

What is on record for Hnf4 #2?
z-score, replicate 1: -0.9; z-score, replicate 2: -0.1

With CG17032, what was measured?
z-score, replicate 1: -0.2; z-score, replicate 2: 0.3

What did the screen give for tamo?
z-score, replicate 1: -0.2; z-score, replicate 2: -0.1

With Paics, what was measured?
z-score, replicate 1: -0.3; z-score, replicate 2: -0.6

How did the screen score CG14629?
z-score, replicate 1: 0; z-score, replicate 2: -0.2

For CG31635 #1, what does the deposit list?
z-score, replicate 1: -0.5; z-score, replicate 2: -0.6

What is on record for CG31635 #2?
z-score, replicate 1: -0.4; z-score, replicate 2: -0.6

With Doc1, how do the results read?
z-score, replicate 1: -0.3; z-score, replicate 2: -0.4

How did the screen score CG10337?
z-score, replicate 1: -0.1; z-score, replicate 2: -0.1

For Muc18B, how do the results read?
z-score, replicate 1: -0.3; z-score, replicate 2: -0.3

With CG3032, what does the deposit list?
z-score, replicate 1: -0.3; z-score, replicate 2: -0.5

With CG14070, how do the results read?
z-score, replicate 1: -0.3; z-score, replicate 2: -0.6

With CG3045, how do the results read?
z-score, replicate 1: -0.4; z-score, replicate 2: -0.3

For wntD, what does the deposit list?
z-score, replicate 1: -0.1; z-score, replicate 2: -0.5

How did the screen score CG14785?
z-score, replicate 1: 0.1; z-score, replicate 2: -0.4

With Cp15, what does the deposit list?
z-score, replicate 1: -0.4; z-score, replicate 2: -0.1

For CG7794, how do the results read?
z-score, replicate 1: -1; z-score, replicate 2: -0.2

Which result is listed for CG7203?
z-score, replicate 1: -0.1; z-score, replicate 2: -0.2

What is on record for CG15577?
z-score, replicate 1: -0.2; z-score, replicate 2: -0.2

For CG15225, how do the results read?
z-score, replicate 1: -0.2; z-score, replicate 2: -0.3

With rdog, how do the results read?
z-score, replicate 1: -0.3; z-score, replicate 2: -0.7

What is on record for CG13047?
z-score, replicate 1: -0.3; z-score, replicate 2: -0.3

With l(3)L1231, how do the results read?
z-score, replicate 1: -0.2; z-score, replicate 2: -0.5

With CG14227, what was measured?
z-score, replicate 1: -0.6; z-score, replicate 2: -0.5

For CG15125, what was measured?
z-score, replicate 1: -0.1; z-score, replicate 2: -0.2

What is on record for CG13321?
z-score, replicate 1: -0.2; z-score, replicate 2: -0.2

What is on record for CG16800?
z-score, replicate 1: -0.3; z-score, replicate 2: -0.3

For grh #1, how do the results read?
z-score, replicate 1: -0.5; z-score, replicate 2: -0.2

For grh #2, what was measured?
z-score, replicate 1: 0.7; z-score, replicate 2: 1.6

With grh #3, what was measured?
z-score, replicate 1: -0.3; z-score, replicate 2: -0.4

With grh #4, what was measured?
z-score, replicate 1: -0.2; z-score, replicate 2: -0.3

With gas, what was measured?
z-score, replicate 1: -0.3; z-score, replicate 2: -0.2

Which result is listed for dmrt99B?
z-score, replicate 1: 2.3; z-score, replicate 2: -0.9

For GatA, what was measured?
z-score, replicate 1: -0.3; z-score, replicate 2: 0
